# The whole screen tested about 580,000 compounds, of which about 6,100 (1.1%) were called active. The shares of active, inactive and inconclusive entries below differ from those in the screen. The call rests on the fitted dose curve; in most records, active means well fitted inhibition curve with a large enough effect; inconclusive means small, poorly fitted or top-dose-only effect, or another doubt; inactive means no such curve, though single readings can be large or run the other way. Where the call is inconclusive, the potency comes from a doubtful curve fit.
# Amino acid sequences for entries named in this document (tags omitted). A change or cut given only in a name is not applied to a line headed by its entry.
# UniProt P18054: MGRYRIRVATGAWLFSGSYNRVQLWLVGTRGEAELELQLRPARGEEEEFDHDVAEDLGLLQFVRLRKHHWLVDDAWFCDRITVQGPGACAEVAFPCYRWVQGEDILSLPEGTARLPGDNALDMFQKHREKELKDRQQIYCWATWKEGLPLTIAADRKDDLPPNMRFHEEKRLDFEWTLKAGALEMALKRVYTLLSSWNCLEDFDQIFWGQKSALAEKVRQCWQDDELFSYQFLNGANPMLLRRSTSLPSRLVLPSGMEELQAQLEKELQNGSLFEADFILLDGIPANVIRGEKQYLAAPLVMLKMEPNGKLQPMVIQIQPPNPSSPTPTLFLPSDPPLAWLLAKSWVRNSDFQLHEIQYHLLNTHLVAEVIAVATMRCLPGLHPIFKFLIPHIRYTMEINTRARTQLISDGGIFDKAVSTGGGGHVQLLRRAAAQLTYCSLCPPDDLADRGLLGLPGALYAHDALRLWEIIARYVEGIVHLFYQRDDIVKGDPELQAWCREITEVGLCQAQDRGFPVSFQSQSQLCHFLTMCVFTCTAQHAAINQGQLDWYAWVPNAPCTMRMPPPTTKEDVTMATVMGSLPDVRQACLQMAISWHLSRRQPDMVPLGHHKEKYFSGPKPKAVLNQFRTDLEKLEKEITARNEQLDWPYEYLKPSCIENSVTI
# Target: Polyunsaturated fatty acid lipoxygenase ALOX12 (Homo sapiens) (UniProt P18054)
# Assay: Primary qHTS assay for inhibitors of human arachidonate 12S-lipoxygenase (ALOX12): Round 2
# Details: purified 12hLO, xylenol orange hydroperoxide absorbance; series mostly up to 108 µM
# In short: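 Purified human 12hLO at 150 nM in 25 mM Hepes, 0.01% Triton X-100, pH 7.0, preincubated 15 min at room temperature with compound. Reaction started with 40 uM arachidonic acid, 30 min at room temperature. Hydroperoxide measured by Fe-xylenol orange, 573/405 nm absorbance ratio.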
# Potency means the concentration at half of the fitted maximal effect.
row,SMILES,Potency
1,COc1ccc(-c2noc([C@@H](C)NCC3CCCC3)c2C(=O)O)cc1,"inconclusive: 25.1 µM [inhibitor, full curve]"
2,COc1ccc(C(=O)CCl)cc1Br,"inconclusive: 3.55 µM [inhibitor, full curve, poor fit]"
3,CN(C)c1ncccc1CNC(=O)COc1ccccc1Cl,inactive
4,CC(=O)Nc1ccccc1-c1nccc2c(=O)cc(N(C)c3ccccc3)oc12,"inconclusive: 50.1 µM [inhibitor, full curve, poor fit]"
5,O=C(O)/C=C\C(=O)Nc1ccccc1N1CCN(c2ccccc2)CC1,"inconclusive: 11.2 µM [inhibitor, partial curve, poor fit]"
6,COc1ccc(NS(=O)(=O)c2ccc(NC(=S)NC(=O)C(C)C)cc2)cc1,"inconclusive: 22.4 µM [inhibitor, partial curve, poor fit]"
7,CCOc1ccc(N(Cc2cc3cc(OC)ccc3[nH]c2=O)C(C)=O)cc1,"inconclusive: 35.5 µM [inhibitor, partial curve, poor fit]"
8,Cc1ccc(O)c(NC(=S)NC(=O)c2ccc(-c3ccc(Cl)cc3)o2)c1,"inconclusive: 8.91 µM [inhibitor, partial curve, poor fit]"
9,O=C(COc1ccccc1Cl)NCc1nc(-c2ccccc2)no1,inactive
10,Cc1cnc(C(=O)OCC(=O)c2cc(C)n(CCc3ccc(F)cc3)c2C)cn1,inactive
11,CCCCCn1c(-c2cccc(C)c2)nc2ccccc21,"inconclusive: 79.4 µM [inhibitor, partial curve, poor fit]"
12,C=CCC1(CC=C)CCCN1C(=O)C1CCC(=O)N(Cc2ccc(Cl)cc2)C1 (configuration not stated),"inconclusive: 112 µM [inhibitor, single point]"
13,CSc1cccc(NC(=O)C2CCCN(S(=O)(=O)c3ccc(F)cc3)C2)c1 (configuration not stated),inactive
14,COc1ccccc1CNS(=O)(=O)c1ccc(N2CCCCS2(=O)=O)cc1,"inconclusive: 126 µM [inhibitor, partial curve, poor fit]"
15,COC(=O)c1c(O)c2ccccc2[nH]c1=O,"inconclusive: 35.5 µM [inhibitor, partial curve, poor fit]"
16,N#Cc1c(C2CC2)cc(C(F)(F)F)[nH]c1=O,inactive
17,CC(=O)Nc1ccc(C(C#N)=Cc2ccc(N(C)CCC#N)cc2)cc1,inactive
18,Cn1cc(SCC(=O)Nc2ccc3c(c2)OCO3)c2ccccc21,"inconclusive: 100 µM [inhibitor, single point]"
19,Cc1cn([C@H]2C[C@H](O)[C@@H](CNCc3cccn3-c3ccncc3)O2)c(=O)[nH]c1=O,inactive
20,C(=N\N(c1ccccc1)c1ccccc1)/c1ccco1,"inconclusive: 44.7 µM [inhibitor, partial curve, poor fit]"
21,O=C(NCC(c1ccco1)N1CCc2ccccc2C1)c1ccc(Cl)c([N+](=O)[O-])c1 (configuration not stated),"inconclusive: 89.1 µM [inhibitor, partial curve, poor fit]"

# Three compounds drawn at random from those above:
row,SMILES,Potency
16,N#Cc1c(C2CC2)cc(C(F)(F)F)[nH]c1=O,inactive
6,COc1ccc(NS(=O)(=O)c2ccc(NC(=S)NC(=O)C(C)C)cc2)cc1,"inconclusive: 22.4 µM [inhibitor, partial curve, poor fit]"
13,CSc1cccc(NC(=O)C2CCCN(S(=O)(=O)c3ccc(F)cc3)C2)c1 (configuration not stated),inactive

# Additional compounds follow.

row,SMILES,Potency
1,CCOc1cc(CNc2ncc(-c3ccc(OC)cc3)n2C)ccc1O,active: 1 µM
2,O=C(c1ccncc1)N1CCC2(CCCN(c3cccc(-c4ccccc4)c3)C2)CC1,"inconclusive: 31.6 µM [inhibitor, single point]"
3,COCCCNCCCOc1ccc(C)cc1Br,"inconclusive: 0.501 µM [inhibitor, full curve, poor fit]"
4,O=[N+]([O-])c1cccc2nc(/C=C/c3ccccc3C(F)(F)F)ccc12,"inconclusive: 1.78 µM [inhibitor, partial curve, poor fit]"
5,O=C1COCC2(CN1Cc1cccc(OC(F)(F)F)c1)CN(C(=O)Cc1cccnc1)C2,"inconclusive: 31.6 µM [inhibitor, full curve]"
6,O=C1[C@@H]2C[C@@H](CN2Cc2cccnc2)Oc2ccccc2N1CC1CC1,inactive
7,CCCC(C(=O)NCCC(C)C)N(Cc1ccccc1)C(=O)c1snc(C(N)=O)c1N (configuration not stated),"inconclusive: 1.58 µM [inhibitor, partial curve, poor fit]"
8,Cc1cc(C)n(CC(=O)N2CCCC(N3CCN(c4cccc(C(F)(F)F)c4)CC3)C2)n1 (configuration not stated),inactive
9,CCOC(=O)C1=C(C)OC(=Cc2ccc(OC)cc2)C1=O,"inconclusive: 56.2 µM [inhibitor, partial curve, poor fit]"
10,COc1cccc(CNc2ccc([N+](=O)[O-])c(NCC(=O)O)n2)c1,"inconclusive: 44.7 µM [inhibitor, partial curve, poor fit]"
11,Cc1nncn1C1CCN(S(=O)(=O)c2ccc(F)c(Cl)c2)CC1,inactive
12,COc1nc(-c2ccccc2)c2cc(Br)ccc2n1,inactive
13,COc1ccc(CCNC(=O)CSC2=NS(=O)(=O)c3cc(F)ccc3N2)cc1OC,"inconclusive: 35.5 µM [inhibitor, partial curve, poor fit]"
14,O=C(O)c1cccc(Nc2cc(Cl)c3nonc3c2[N+](=O)[O-])c1,"inconclusive: 44.7 µM [inhibitor, partial curve, poor fit]"
15,COC(=O)[C@H]1C[C@@]2(n3ccc4ccccc43)c3ccccc3N(S(=O)(=O)c3ccccc3)[C@H]2N1C(=O)CNC1CCCCC1,inactive
16,Cc1ccc(-n2cccc2CC(=O)N2CCCC2)cc1,"inconclusive: 22.4 µM [inhibitor, full curve]"
17,CC(C)CN[C@@H]1C[C@H](Cn2cc(C3CC3)nn2)[C@@H](O)[C@H]1O,"inconclusive: 14.1 µM [inhibitor, full curve]"
18,O=C1NCN(Cc2ccc(Cl)cc2)C12CCN(Cc1cccnc1)CC2,"inconclusive: 50.1 µM [inhibitor, partial curve, poor fit]"
19,Cn1c2ccccc2c2cc(/C=C(\NC(=O)c3ccccc3)C(=O)NCC(=O)O)ccc21,"inconclusive: 28.2 µM [inhibitor, partial curve, poor fit]"
20,CCn1cc(CN(CCOC)Cc2cccs2)ccc1=O,inactive
21,O=C(Nc1ccccc1F)c1cnn2c(C(F)F)cc(C3CC3)nc12,"inconclusive: 44.7 µM [inhibitor, single point]"

# Reference: PubChem BioAssay AID1671190 (National Center for Advancing Translational Sciences (NCATS), 2021)
